Data: patent publication US10239937
These are yes or no findings as the source states them, for the method shown. Some binding calls cover weakened binding; strength is not graded here.

The chains behind the UniProt entries cited, without tags or fusion partners. Residues count along the entry.
UniProt P01024, residues 1002-1303: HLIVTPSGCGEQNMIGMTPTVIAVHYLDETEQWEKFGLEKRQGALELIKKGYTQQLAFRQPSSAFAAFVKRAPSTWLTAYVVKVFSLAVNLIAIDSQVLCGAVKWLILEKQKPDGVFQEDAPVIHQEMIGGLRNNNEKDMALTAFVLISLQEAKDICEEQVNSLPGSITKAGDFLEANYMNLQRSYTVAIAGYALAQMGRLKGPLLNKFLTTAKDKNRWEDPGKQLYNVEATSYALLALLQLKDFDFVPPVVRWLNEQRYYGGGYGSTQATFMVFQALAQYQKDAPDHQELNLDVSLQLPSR

Legend:
[1] = target: C3 fragments (iC3b, C3dg and C3d) of human complement component C3, deposited on cells or tissue (human) (UniProt P01024); test: immunostaining of asthmatic human lung tissue
[2] = target: C3 fragments (iC3b, C3dg and C3d) of human complement component C3, deposited on cells or tissue (human) (UniProt P01024); test: immunostaining of asthmatic human lung tissue (FIG. 24)
[3] = target: C3 fragments (iC3b, C3dg and C3d) of human complement component C3, deposited on cells or tissue (human) (UniProt P01024); test: C3frag+ PNH RBCs from patients on eculizumab, in vitro hemolysis assay (modified Ham test)
[4] = target: C3 fragments (iC3b, C3dg and C3d) of human complement component C3, deposited on cells or tissue (human) (UniProt P01024); test: flow cytometry with an anti-fH mAb on PNH RBCs incubated with TT30 in acidified normal serum

Measured: binding

B1: TT30 (protein)
chain: ISCGSPPPILNGRISYYSTPIAVGTVIRYSCSGTFRLIGEKSLLCITKDKVDGTWDKPAPKCEYFNKYSSCPEPIVPGGYKIRGSTPYRHGDSVTFACKTNFSMNGNKSVWCQANNMWGPTRLPTCVSVFPLECPALPMIHNGHHTSENVGSIAPGLSVTYSCESGYLLVGEKIINCLSSGKWSAVPPTCEEARCKSLGRFPNGKVKEPPILRVGVTANFFCDEGYRLQGPPSSRCVIAGQGVAWTKMPVCEEIFEDCNELPPRRNTEILTGSWSDQTYPEGTQAIYKCRPGYRSLGNVIMVCRKGEWVALNPLRKCQKRPCGHPGDTPFGTFTLTGGNVFEYGVKAVYTCNEGYQLLGEINYRECDTDGWTNDIPICEVVKCLPVTAPENGKIVSSAMEPDREYHFGQAVRFVCNSGYKIEGDEEMHCSDDGFWSKEKPKCVEISCKSPDVINGSPISQKIIYKENERFQYKCNMGYEYSERGDAVCTESGWRPLPSCEEKSCDNPYIPNGDYSPLRIKHRTGDEITYQCRNGFYPATRGNTAKCTSTGWIPAPRCTLK
binds: all assays above
